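The test systems are human melanoma cell lines, treated with two drugs together for 72 h and then stained and imaged. The read-out is the fraction of cleaved-PARP-positive nuclei, in % of that fraction in the DMSO control; 200 means twice the control level of this apoptosis marker. Concentrations were fixed for each drug; these are the higher of two levels. These are primary screening values without error estimates. The marker varies much from line to line, for technical or biological reasons.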
Only some of the drugs and lines screened are listed, without regard to their results.
A dash means that no value is listed here.

Compounds and concentrations:
FK866, 0.05 µM: O=C(/C=C/c1cccnc1)NCCCCC1CCN(C(=O)c2ccccc2)CC1
temozolomide, 10 µM: Cn1nnc2c(C(N)=O)ncn2c1=O
lenalidomide, 5 µM: Nc1cccc2c1CN(C1CCC(=O)NC1=O)C2=O (stereo not shown)
dorsomorphin, 2 µM: c1cc(-c2cnn3cc(-c4ccc(OCCN5CCCCC5)cc4)cnc23)ccn1
everolimus, 0.1 µM: CO[C@H]1C[C@@H]2CC[C@@H](C)[C@@](O)(O2)C(=O)C(=O)N2CCCC[C@H]2C(=O)O[C@H]([C@H](C)C[C@@H]2CC[C@@H](OCCO)[C@H](OC)C2)CC(=O)[C@H](C)/C=C(\C)[C@@H](O)[C@@H](OC)C(=O)[C@H](C)C[C@H](C)/C=C/C=C/C=C/1C
enzastaurin, 4 µM: Cn1cc(C2=C(c3cn(C4CCN(Cc5ccccn5)CC4)c4ccccc34)C(=O)NC2=O)c2ccccc21
GW9662, 10 µM: O=C(Nc1ccccc1)c1cc([N+](=O)[O-])ccc1Cl
fludarabine, 1 µM: Nc1nc(F)nc2c1ncn2[C@@H]1O[C@H](CO)[C@@H](O)[C@@H]1O

Drugs	COLO 829	WM1716	RPMI-7951	WM3526	SK-MEL-30	UACC-257	SK-MEL-5	COLO 800	501mel	LB2518-MEL
enzastaurin and temozolomide	86.8	523	142	227	74.6	49.0	504	127	-	145
lenalidomide and dorsomorphin	121	95.8	76.0	45.3	68.6	33.4	215	213	269	189
enzastaurin and GW9662	174	255	206	222	145	78.4	187	169	123	233
lenalidomide and enzastaurin	37.4	150	296	148	97.2	255	326	153	-	65.0
FK866 and dorsomorphin	272	35.5	47.8	101	119	73.8	121	197	249	884
enzastaurin and everolimus	181	343	244	143	50.6	38.8	85.7	26.7	-	91.4
temozolomide and FK866	412	293	52.2	77.5	173	39.0	30.6	518	-	550
enzastaurin and FK866	305	61.0	343	233	144	110	90.5	151	-	428
lenalidomide and fludarabine	139	109	71.4	4200	2790	7430	3280	172	-	47.8
GW9662 and lenalidomide	232	58.8	133	65.9	116	49.7	178	76.4	152	69.7
GW9662 and fludarabine	141	33.7	165	2940	1300	1990	935	72.5	12100	115
dorsomorphin and fludarabine	130	32.0	155	1530	751	1480	2820	139	1000	655
enzastaurin and fludarabine	103	56.4	361	4750	1390	3160	1870	277	-	102
everolimus and FK866	431	41.2	49.1	200	136	37.6	113	100	-	577
enzastaurin and dorsomorphin	68.4	199	399	202	200	116	44.6	175	78.6	393
FK866 and GW9662	304	106	232	125	180	22.7	36.2	162	107	831
lenalidomide and temozolomide	148	613	48.7	66.0	150	74.5	103	81.4	-	247
FK866 and lenalidomide	450	22.6	68.9	184	160	51.1	56.4	83.5	-	518
lenalidomide and everolimus	93.9	132	28.2	82.9	100	44.0	192	286	-	418
dorsomorphin and GW9662	122	114	180	151	127	61.3	147	139	382	190
GW9662 and temozolomide	122	326	79.2	160	161	36.3	123	44.1	78.1	102
FK866 and fludarabine	331	163	152	2890	808	4910	2260	329	-	-
everolimus and dorsomorphin	67.2	71.0	66.0	134	173	51.6	99.0	102	97.0	181
fludarabine and everolimus	137	50.4	98.6	2530	2380	5800	1810	118	-	375
GW9662 and everolimus	89.4	205	134	266	313	78.2	238	94.3	394	78.9

From a melanoma drug combination screen (doi:10.1371/journal.pone.0140310); values rounded.